The other results are listed elsewhere or left out.

The chains behind the UniProt entries cited, without tags or fusion partners. Where a name states a change or a piece, a line headed by the entry shows the natural chain unless it says otherwise.
UniProt Q969F9: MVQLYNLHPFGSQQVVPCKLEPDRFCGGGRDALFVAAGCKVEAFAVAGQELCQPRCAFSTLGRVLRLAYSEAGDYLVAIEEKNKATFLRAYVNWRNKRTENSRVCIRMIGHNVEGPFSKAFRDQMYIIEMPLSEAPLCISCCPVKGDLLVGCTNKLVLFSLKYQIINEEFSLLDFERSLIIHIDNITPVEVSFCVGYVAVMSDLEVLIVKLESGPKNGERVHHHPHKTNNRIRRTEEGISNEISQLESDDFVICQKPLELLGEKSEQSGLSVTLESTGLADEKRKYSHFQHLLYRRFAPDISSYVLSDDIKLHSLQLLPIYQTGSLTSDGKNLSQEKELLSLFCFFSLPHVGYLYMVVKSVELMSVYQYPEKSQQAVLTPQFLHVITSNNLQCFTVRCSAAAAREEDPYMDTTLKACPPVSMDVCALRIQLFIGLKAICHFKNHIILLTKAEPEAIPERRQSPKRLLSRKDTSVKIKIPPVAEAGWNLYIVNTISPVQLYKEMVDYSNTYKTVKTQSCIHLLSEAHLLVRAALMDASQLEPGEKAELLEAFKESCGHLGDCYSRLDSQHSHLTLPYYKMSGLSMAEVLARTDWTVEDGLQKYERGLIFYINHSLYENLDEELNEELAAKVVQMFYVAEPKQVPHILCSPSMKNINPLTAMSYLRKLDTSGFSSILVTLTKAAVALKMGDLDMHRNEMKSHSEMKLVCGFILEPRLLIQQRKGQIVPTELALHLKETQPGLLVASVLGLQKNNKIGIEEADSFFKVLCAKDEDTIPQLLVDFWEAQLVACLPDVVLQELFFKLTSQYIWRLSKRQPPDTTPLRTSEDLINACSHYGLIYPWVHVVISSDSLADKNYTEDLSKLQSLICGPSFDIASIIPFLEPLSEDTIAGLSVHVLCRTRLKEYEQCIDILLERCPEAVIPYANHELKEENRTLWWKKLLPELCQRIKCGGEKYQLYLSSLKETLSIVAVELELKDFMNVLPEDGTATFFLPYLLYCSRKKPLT
UniProt Q00839, whole entry, looked up: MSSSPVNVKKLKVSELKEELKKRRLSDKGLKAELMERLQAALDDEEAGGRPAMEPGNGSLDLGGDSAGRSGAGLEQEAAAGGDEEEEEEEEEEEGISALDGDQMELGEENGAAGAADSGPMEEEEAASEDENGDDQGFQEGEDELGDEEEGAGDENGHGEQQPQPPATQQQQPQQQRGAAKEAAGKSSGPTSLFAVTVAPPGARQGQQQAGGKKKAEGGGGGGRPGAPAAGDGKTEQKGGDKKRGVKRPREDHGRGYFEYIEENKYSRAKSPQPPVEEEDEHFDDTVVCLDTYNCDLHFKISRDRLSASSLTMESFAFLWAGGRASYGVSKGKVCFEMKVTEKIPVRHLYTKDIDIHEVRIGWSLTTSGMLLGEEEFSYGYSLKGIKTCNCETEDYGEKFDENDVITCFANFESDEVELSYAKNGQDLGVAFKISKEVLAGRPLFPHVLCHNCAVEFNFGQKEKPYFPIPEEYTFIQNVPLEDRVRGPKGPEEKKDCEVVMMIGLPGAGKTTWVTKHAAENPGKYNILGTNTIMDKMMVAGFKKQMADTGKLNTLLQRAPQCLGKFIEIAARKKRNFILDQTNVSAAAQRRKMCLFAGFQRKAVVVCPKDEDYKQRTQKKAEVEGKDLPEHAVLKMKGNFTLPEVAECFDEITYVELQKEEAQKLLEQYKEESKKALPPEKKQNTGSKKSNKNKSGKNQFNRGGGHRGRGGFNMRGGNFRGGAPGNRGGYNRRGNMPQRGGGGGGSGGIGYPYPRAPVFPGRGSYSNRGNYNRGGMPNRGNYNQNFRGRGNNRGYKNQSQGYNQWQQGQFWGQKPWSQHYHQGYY
UniProt P17096: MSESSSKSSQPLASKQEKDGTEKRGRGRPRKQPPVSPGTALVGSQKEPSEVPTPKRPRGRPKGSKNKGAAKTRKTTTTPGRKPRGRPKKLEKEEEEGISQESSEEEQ
UniProt Q96JB3: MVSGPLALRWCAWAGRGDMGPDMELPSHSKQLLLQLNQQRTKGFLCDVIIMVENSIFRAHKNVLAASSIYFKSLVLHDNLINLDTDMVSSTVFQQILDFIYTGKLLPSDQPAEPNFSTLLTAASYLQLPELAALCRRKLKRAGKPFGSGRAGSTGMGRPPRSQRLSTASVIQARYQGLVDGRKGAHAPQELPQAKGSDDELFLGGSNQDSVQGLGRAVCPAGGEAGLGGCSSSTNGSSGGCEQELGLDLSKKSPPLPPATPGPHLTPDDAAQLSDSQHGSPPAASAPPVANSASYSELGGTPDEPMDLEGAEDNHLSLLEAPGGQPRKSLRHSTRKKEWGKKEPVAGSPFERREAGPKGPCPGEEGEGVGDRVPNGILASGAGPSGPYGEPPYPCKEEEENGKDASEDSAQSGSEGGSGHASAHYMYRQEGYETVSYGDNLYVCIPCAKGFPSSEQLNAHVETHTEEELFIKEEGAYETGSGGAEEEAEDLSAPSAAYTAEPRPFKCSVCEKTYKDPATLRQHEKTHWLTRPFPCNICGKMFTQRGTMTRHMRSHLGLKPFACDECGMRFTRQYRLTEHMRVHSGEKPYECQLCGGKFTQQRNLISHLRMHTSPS
UniProt P07910: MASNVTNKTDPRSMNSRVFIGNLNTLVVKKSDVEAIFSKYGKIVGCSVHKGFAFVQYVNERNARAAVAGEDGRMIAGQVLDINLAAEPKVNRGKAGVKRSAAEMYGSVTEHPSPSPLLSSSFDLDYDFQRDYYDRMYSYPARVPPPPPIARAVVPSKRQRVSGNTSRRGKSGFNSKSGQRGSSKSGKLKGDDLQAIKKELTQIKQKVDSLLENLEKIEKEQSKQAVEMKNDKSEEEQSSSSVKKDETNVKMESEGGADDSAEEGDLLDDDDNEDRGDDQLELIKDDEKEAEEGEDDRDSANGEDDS
UniProt Q9Y241: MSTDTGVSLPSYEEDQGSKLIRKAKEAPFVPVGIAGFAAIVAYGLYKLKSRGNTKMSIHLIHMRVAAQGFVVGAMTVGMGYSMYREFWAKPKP
UniProt Q15034: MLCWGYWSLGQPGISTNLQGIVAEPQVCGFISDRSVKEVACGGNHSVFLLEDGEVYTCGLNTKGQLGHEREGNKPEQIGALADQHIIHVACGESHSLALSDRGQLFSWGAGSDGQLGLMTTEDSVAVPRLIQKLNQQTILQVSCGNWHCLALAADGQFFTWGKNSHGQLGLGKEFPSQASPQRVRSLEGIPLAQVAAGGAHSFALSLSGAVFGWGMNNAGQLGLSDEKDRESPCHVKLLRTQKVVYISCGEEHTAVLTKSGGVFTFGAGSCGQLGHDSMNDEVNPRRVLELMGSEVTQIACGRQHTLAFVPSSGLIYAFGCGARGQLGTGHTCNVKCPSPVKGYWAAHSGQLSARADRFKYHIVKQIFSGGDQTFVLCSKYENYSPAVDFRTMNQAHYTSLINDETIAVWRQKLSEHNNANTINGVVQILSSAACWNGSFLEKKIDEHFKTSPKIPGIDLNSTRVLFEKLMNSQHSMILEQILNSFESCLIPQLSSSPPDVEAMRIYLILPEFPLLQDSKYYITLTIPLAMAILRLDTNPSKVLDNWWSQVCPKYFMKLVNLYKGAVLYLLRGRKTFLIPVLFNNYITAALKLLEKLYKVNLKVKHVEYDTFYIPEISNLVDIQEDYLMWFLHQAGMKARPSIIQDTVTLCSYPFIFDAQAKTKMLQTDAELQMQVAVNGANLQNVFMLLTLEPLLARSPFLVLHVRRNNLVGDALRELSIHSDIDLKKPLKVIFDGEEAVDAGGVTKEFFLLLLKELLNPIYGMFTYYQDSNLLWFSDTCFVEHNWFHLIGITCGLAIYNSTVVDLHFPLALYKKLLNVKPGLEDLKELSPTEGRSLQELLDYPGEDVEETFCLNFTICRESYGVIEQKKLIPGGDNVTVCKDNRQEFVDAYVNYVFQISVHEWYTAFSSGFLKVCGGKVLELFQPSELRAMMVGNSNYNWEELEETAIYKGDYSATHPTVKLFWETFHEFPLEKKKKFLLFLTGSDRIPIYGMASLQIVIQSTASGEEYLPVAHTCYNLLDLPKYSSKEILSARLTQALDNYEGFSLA
UniProt Q9UJC3, whole entry, looked up: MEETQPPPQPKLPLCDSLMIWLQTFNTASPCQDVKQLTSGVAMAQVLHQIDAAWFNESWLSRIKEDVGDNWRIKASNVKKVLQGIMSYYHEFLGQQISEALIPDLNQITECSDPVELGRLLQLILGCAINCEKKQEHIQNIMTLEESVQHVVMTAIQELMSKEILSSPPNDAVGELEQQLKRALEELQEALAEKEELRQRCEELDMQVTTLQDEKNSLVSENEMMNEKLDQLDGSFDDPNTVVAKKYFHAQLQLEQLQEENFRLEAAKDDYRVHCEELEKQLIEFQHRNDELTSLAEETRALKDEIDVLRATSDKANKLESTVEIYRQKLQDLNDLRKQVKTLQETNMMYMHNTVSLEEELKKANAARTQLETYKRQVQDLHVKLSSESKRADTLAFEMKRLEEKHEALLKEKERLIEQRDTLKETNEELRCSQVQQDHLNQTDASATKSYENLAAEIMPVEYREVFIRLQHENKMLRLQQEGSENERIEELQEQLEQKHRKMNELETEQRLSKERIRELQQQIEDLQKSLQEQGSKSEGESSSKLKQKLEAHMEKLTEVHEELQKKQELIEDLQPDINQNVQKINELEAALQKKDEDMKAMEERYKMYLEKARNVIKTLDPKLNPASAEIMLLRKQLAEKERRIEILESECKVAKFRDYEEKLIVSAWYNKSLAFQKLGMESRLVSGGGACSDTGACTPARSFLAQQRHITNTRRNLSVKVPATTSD
UniProt P13747, whole entry, looked up: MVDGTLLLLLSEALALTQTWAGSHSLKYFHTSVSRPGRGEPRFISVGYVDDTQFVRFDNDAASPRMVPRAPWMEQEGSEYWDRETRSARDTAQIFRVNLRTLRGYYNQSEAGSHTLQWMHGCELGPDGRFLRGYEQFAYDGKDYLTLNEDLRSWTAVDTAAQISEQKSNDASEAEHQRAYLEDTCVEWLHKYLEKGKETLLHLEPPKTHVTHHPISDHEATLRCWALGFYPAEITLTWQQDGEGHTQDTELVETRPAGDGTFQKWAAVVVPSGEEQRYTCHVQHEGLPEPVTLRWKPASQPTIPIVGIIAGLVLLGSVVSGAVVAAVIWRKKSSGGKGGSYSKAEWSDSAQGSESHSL
UniProt Q96MH2: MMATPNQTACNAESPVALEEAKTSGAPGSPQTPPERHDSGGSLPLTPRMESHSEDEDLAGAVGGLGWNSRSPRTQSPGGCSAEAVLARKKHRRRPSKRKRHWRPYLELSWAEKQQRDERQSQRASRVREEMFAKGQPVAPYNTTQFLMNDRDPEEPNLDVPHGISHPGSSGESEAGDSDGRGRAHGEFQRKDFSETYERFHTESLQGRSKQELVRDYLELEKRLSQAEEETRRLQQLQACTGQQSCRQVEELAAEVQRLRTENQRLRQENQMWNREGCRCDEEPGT

The source of these data is the supplement of paper PMC10849652.

Holding throughout (assay): log2 fold change, soluble protein after heating vs DMSO (PISA); higher = thermal stabilisation; K562 lysate, 10 uM; active = over 0.2 and 3.5 SD of the protein, either way, in both replicates (recomputed)
Compound in one assay: CCCS(=O)(=O)Nc1ccc(F)c(C(=O)c2c[nH]c3ncc(-c4ccc(Cl)cc4)cc23)c1F [vemurafenib]
An outline of the steps: (§1)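 K562 pellets were dounce-homogenised in PBS pH 7.4 containing 1 mM MgCl2, and the crude extract, at 1 mg/mL protein, was exposed to 10 μM compound for 30 min. Aliquots were heated for 3 min across 48°C-58°C, pooled, brought to 0.5% NP-40 at 4°C and spun at 21,000xg for 90 min, with the supernatant taken as soluble protein. TMTpro 16plex LC-MS/MS with equalised channel sums quantified that protein. Values are log-two fold changes in thermal stability relative to solvent controls, taken from duplicates.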

Compound in assay [1]: CC[C@@H]1C(=O)N(C)c2cnc(Nc3ccc(C(=O)NC4CCN(C)CC4)cc3OC)nc2N1C1CCCC1
The essentials:
as §1

Compound in assay [2]: CCn1c(C(=O)N(C2CC2)C2CC2)cc2c3c(ncn3C)c(Nc3cc(C)n(C)n3)nc21
An outline of the steps: as §1

Compound in assay [3]: CCn1cc(-c2ccnc3[nH]c(-c4cccc(CN(C)C)c4)cc23)c(-c2ccc(NC(=O)N(C)C)cc2)n1
An outline of the steps: as §1

Compound in assay [4]: CN1CCC(CNc2ccc3ncc(-c4cccc(OC(F)(F)F)c4)n3n2)CC1
The essentials: as §1

Compound in a further assay: CN1CCN(CCOc2cc(OC3CCOCC3)c3c(Nc4c(Cl)ccc5c4OCO5)ncnc3c2)CC1 [saracatinib]
The essentials: as §1

Compound in another assay: CN1CCN(c2nc(C3=C(c4c[nH]c5ccccc45)C(=O)NC3=O)c3ccccc3n2)CC1 [sotrastaurin]
The essentials: as §1

Compound in assay [5]: CCCS(=O)(=O)Nc1ccc(F)c(C(=O)c2c[nH]c3ncc(Cl)cc23)c1F
The essentials:
as §1

Compound in the next assay: CCN(CCCOc1ccc2c(Nc3cc(CC(=O)Nc4cccc(F)c4)[nH]n3)ncnc2c1)CCOP(=O)(O)O [barasertib]
The essentials:
as §1

Compound in another assay: CC[C@@H]1C(=O)N(C)c2cnc(Nc3ccc(C(=O)N[C@H]4CC[C@H](N5CCN(CC6CC6)CC5)CC4)cc3OC)nc2N1C(C)C [volasertib]
An outline of the steps: as §1

HPS3 (UniProt Q969F9): the log2 fold change in the assay with vemurafenib is inactive: 0.146; in assay [1], inactive: 0.038; in [2] it was inactive: 0.114; in assay [3], inactive: -0.027; in assay [4], inactive: -0.079; in the assay with saracatinib, inactive: 0.048. Also, the log2 fold change with sotrastaurin is inactive: 0.173.

As to HNRNPD (UniProt D6RF44), in the assay with sotrastaurin, the log2 fold change was inactive: 0.079.

Regarding HMGN5 (UniProt Q5JSK9), the log2 fold change is inactive: -0.013 in assay [5], inactive: -0.03 with barasertib, inactive: 0.039 in assay [1] and inactive: 0.054 with volasertib.

For HNRNPU isoform 2 (UniProt Q00839), the log2 fold change with saracatinib was inactive: 0.065.

In the case of HMGA1 isoform 2 (UniProt P17096), the log2 fold change in assay [5] is inactive: 0.019; with volasertib it was inactive: 0.034; in assay [2] it was inactive: 0.027; in [3] it was active: 0.875; in assay [4], inactive: -0.339; in the assay with saracatinib, inactive: 0.053. For the same target, in the assay with sotrastaurin, the log2 fold change is inactive: -0.106.

In the case of HIC2 isoform 2 (UniProt Q96JB3), in the assay with sotrastaurin, the log2 fold change is inactive: 0.083.

Regarding HNRNPUL1 (UniProt M0R247), the log2 fold change with barasertib is inactive: 0.109; in [3] it was inactive: 0.004; in [4], inactive: 0.037.

As for HNRNPC isoform 2 (UniProt P07910), the log2 fold change with saracatinib is inactive: 0.015.

For the target HIGD1A isoform 2 (UniProt Q9Y241), the log2 fold change in assay [5] was inactive: -0.165; in the assay with volasertib, inactive: 0.064; in assay [2], inactive: -0.013; in assay [3] it was inactive: -0.222; in [4], inactive: -0.127; with saracatinib, inactive: 0.115.

Turning to HERC3 (UniProt Q15034), the log2 fold change in [1] was inactive: 0.343; in [2], inactive: 0.016; with saracatinib, inactive: -0.1; with sotrastaurin, inactive: 0.124.

HOOK1 (UniProt Q9UJC3): the log2 fold change is inactive: -0.558 in assay [3], inactive: 0.182 in assay [4] and inactive: 0.046 with saracatinib.

Take HLA-E (UniProt P13747): the log2 fold change in assay [1] was inactive: 0.053.

With HEXIM2 (UniProt Q96MH2), the log2 fold change in assay [2] was inactive: 0.335; with saracatinib, inactive: 0.013; with sotrastaurin it was inactive: -0.003.
